Measured values published in article PMC7467243, “Response to and recovery from treatment in human liver-mimetic clinostat spheroids: a model for assessing repeated-dose drug toxicity” (Toxicology Research, 2020).

Key:
[1] = tested on: HepG2–C3A spheroids; settings: human
Procedure: Three hundred 21-day old spheroids (corresponding to ~25 million cells or 3.5 mg protein) were gently pipetted (using a cut-tip) into each 10 ml bioreactor before treatment to provide ample material for analysis. To initiate drug treatment, the bioreactor rotation was stopped for 30 s to allow the spheroids to settle to the bottom of the bioreactor. […] Each narrow range experiment was carried out in duplicate and ATP was measured in technical triplicates for each sample. […] Data were normalized to the vehicle-treated control. Error bars in the figures show standard deviation.
Cell viability was measured based on their ability to produce ATP [37]. […] The cells were then lysed with 100 μl of lysis buffer (CellTiter-Glo luminescent cell viability assay, Promega, Fitchburg, WI, Cat. no. G7571) and shaken in the dark for 20 min. Before the luminescence was measured in a FluoStar OPTIMA (BMG Labtech, Ortenberg, Germany) using the following parameters: one kinetic window, 10 measurement cycles with 0.3 s of measurement interval time, 2-s delay per measurement, additional 0.5-s delay per position change (repeated twice for each measured plate). Replicates were performed as described under the ‘Drug treatment’ Section. The data were normalized with reference to a standard curve for ATP and to the untreated control.

[2] = tested on: HepG2–C3A spheroids
[3] = cited from earlier work
[4] = cited from earlier work; remark: listed apart in the source

CCCCc1oc2ccccc2c1C(=O)c1cc(I)c(OCCN(CC)CC)c(I)c1 [Amiodarone]
acute lethal dose [1]: 0.9 mg/mg
change in the LD50 with galactose medium [2]: no change
Toxic dose, μg/ml in blood [3]: 2.5 to 3 µg/mL
DILI rank (risk to induce drug-induced liver injury) [4]: vMost DILI
